Structures can show the parent of a compound that is named as a salt. The list shows a part of the results. The calls rarely recur for the same compound in another form.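 Kinases were expressed as nanoluciferase fusions in K562 cells and luminescence was read every 4 h between 2 and 18 h as percent of control, DMSO set to 100% and a positive control to 0%. A time point counts as decreased when the signal drops significantly (2 sigma). The hit call is the authors' own, does not follow from the count of time points alone, and its rule is not shown.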
Assays:
Assay in all cases: kinase-Nluc reporter destabilization hit call (1 = scored as downregulated) (binary); higher = compound decreases kinase abundance
Conditions in all cases: K562; 2-18 h
MAPK1 = MAPK1 (UniProt P28482)
MAPK4 = MAPK4 (UniProt P31152)
MAPKAPK2 = MAPKAPK2 (UniProt P49137)
MKNK1 = MKNK1 (UniProt Q9BUB5)
NTRK2 = NTRK2 (UniProt Q16620)
NTRK3 = NTRK3 (UniProt Q16288)
PAK4 = PAK4 (UniProt O96013)
PBK = PBK (UniProt Q96KB5)
PDGFRB = PDGFRB (UniProt P09619)
PDK1 = PDK1 (UniProt Q15118)
PDPK1 = PDPK1 (UniProt O15530)
PIK4CA = PIK4CA (UniProt P42356)
PIK4CB = PIK4CB (UniProt Q9UBF8)
PLK1 = PLK1 (UniProt P53350)
PRKAA1 = PRKAA1 (UniProt Q13131)
PRKCA = PRKCA (UniProt P17252)
PTK2 = PTK2 (UniProt Q05397)
PTK2B = PTK2B (UniProt Q14289)
RAF1 = RAF1 (UniProt P04049)
[1] = target: RAF1_S257L (clone: RAF1_mut) (UniProt P04049)

Amino acid sequences for entries named in this document (tags omitted). A change or cut given only in a name is not applied to a line headed by its entry.
UniProt P28482, whole entry: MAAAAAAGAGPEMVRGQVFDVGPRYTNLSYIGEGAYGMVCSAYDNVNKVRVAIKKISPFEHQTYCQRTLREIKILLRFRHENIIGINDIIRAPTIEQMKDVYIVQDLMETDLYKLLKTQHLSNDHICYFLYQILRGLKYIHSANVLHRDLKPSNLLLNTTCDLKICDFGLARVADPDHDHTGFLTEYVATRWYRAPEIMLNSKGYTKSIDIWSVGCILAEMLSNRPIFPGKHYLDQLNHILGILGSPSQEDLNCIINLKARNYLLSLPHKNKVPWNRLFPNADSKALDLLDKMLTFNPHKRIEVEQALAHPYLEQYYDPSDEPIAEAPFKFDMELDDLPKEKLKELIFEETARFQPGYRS
UniProt Q9BUB5: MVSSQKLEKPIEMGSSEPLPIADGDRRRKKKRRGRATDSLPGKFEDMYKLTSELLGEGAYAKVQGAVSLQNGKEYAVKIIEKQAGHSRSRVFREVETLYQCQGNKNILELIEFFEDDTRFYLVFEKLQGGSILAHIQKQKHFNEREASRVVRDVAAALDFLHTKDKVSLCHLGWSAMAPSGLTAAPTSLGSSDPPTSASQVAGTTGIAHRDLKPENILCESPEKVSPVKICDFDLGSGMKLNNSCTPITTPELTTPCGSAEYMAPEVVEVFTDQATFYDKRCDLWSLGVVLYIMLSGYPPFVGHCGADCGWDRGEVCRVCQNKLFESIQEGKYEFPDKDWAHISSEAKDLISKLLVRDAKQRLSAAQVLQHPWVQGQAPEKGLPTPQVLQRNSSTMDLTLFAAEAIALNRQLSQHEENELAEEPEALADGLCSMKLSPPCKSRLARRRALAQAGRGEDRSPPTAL
UniProt Q16620, whole entry, looked up: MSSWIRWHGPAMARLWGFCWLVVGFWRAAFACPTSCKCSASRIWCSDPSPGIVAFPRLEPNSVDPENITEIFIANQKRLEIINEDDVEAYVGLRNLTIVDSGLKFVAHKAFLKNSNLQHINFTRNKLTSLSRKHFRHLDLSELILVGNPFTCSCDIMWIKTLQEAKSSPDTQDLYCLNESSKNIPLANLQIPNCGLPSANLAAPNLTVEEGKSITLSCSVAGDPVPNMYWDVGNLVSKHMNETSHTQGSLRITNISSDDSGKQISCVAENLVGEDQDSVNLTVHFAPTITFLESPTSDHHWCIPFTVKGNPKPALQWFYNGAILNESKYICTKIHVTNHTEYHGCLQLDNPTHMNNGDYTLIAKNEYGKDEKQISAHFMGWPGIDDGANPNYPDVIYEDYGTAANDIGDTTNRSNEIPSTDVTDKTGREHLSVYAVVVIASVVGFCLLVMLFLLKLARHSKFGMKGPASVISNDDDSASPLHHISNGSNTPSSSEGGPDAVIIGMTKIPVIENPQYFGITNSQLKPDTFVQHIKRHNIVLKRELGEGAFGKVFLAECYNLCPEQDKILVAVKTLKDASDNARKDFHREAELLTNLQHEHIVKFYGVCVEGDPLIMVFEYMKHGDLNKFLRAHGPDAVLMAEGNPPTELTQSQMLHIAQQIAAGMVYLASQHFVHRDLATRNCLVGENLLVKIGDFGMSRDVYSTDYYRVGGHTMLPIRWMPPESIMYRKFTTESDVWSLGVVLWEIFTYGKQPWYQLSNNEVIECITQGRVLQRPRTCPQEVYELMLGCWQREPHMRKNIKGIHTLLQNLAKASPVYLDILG
UniProt Q15118, whole entry, looked up: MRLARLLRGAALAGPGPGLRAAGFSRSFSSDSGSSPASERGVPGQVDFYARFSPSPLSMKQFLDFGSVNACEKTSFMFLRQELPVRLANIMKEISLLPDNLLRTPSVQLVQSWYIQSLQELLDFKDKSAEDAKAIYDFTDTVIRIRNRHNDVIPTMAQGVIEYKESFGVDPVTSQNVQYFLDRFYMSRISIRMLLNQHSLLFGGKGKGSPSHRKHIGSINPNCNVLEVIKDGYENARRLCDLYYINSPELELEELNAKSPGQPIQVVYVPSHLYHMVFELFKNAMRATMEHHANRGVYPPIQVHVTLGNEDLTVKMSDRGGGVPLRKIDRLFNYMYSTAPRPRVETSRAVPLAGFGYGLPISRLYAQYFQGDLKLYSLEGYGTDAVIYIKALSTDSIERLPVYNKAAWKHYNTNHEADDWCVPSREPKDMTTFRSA
UniProt O15530: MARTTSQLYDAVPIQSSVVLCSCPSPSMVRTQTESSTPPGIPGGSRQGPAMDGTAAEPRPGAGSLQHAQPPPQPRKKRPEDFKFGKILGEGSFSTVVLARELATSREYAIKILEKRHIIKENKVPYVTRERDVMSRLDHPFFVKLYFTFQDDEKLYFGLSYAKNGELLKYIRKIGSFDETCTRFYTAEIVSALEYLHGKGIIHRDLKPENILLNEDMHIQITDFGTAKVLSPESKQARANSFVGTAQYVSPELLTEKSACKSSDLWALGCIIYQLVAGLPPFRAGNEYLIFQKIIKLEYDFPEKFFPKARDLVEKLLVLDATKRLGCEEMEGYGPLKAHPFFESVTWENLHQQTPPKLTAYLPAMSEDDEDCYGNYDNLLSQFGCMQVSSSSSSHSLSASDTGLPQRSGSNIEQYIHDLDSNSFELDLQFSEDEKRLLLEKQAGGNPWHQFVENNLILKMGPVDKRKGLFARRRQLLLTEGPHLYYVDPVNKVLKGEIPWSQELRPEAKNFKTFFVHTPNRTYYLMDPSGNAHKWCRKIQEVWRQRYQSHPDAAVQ
UniProt P42356, whole entry, looked up: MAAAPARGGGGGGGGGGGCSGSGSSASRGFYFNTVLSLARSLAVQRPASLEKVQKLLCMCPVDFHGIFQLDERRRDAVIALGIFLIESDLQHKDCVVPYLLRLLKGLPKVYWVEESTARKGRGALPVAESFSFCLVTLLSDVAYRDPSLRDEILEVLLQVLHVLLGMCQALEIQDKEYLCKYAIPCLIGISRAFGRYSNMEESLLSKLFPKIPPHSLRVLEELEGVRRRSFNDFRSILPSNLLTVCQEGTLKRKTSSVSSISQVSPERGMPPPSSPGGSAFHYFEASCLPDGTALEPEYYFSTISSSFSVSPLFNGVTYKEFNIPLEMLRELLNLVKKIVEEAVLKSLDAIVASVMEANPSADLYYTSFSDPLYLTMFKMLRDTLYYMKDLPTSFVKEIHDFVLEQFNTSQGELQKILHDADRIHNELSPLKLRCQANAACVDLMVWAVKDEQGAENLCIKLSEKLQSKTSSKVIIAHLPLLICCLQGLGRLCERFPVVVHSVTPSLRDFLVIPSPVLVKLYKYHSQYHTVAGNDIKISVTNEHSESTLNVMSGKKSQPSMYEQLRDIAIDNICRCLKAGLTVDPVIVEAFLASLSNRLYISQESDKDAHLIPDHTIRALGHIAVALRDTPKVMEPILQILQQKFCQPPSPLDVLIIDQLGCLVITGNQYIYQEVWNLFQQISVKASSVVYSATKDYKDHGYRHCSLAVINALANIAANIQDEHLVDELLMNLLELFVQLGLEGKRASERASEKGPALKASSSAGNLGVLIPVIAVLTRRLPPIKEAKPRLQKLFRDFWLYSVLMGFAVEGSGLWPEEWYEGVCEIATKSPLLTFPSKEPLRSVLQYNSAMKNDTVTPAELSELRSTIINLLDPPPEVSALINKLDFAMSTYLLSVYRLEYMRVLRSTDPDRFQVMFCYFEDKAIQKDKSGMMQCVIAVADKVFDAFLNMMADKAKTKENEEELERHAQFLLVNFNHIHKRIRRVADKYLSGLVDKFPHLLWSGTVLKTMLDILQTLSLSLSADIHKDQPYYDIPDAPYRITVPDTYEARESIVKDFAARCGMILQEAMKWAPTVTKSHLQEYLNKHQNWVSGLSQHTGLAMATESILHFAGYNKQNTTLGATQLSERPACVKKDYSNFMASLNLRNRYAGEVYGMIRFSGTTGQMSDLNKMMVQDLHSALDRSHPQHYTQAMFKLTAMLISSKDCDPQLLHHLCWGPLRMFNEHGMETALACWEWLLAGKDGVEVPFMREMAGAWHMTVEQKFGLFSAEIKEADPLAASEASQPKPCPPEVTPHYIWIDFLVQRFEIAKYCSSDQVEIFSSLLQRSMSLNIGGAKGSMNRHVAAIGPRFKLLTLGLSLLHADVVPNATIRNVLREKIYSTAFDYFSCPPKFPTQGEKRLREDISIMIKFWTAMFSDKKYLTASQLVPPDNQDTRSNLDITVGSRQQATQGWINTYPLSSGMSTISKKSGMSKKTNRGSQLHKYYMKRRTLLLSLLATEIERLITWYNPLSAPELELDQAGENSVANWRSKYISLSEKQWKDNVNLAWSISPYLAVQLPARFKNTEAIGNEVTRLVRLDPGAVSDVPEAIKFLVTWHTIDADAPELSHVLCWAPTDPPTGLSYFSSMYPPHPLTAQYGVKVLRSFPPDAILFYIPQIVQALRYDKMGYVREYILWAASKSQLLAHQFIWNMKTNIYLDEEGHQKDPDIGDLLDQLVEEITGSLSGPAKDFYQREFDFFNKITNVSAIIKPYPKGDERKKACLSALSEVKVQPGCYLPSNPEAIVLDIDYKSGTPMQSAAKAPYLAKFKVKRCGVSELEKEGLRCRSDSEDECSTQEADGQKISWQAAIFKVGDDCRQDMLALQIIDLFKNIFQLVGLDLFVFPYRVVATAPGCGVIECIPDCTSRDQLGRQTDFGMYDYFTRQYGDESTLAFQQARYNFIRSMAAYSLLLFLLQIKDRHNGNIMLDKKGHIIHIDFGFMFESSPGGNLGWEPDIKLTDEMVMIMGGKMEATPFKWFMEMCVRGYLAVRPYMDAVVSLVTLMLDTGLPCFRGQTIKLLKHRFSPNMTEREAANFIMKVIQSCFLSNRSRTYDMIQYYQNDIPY
UniProt P53350, whole entry: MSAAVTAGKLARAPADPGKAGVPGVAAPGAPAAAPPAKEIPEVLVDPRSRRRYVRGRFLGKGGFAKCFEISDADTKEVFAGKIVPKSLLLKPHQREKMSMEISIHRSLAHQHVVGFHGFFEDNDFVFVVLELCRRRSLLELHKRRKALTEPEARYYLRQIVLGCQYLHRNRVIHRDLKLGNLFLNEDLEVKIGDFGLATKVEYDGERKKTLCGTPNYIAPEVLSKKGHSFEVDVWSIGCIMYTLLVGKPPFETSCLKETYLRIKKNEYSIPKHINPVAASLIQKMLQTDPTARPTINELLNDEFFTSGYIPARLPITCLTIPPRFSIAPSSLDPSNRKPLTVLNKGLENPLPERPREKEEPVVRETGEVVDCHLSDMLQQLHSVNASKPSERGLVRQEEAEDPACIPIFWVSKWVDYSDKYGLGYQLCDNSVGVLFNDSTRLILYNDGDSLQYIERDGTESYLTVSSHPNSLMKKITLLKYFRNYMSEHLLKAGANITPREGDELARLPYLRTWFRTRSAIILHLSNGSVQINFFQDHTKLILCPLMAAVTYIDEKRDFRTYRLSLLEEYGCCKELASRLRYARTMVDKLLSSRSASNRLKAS
UniProt Q13131: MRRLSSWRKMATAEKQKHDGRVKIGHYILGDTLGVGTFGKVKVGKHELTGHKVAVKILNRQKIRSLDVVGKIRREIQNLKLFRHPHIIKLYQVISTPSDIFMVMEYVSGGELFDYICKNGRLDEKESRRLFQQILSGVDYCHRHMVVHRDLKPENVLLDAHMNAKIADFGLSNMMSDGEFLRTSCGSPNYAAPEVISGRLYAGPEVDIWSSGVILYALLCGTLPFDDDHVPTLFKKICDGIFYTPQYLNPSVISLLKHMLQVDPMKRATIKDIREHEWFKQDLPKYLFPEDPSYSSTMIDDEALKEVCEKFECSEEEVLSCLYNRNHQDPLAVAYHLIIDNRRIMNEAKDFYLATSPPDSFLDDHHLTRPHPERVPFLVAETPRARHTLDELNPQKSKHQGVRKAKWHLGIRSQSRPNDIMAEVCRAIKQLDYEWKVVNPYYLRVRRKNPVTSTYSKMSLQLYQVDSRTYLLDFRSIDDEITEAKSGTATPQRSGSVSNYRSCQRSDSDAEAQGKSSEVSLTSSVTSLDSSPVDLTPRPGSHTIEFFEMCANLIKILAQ

Measured: kinase-Nluc reporter destabilization hit call

C[C@@H](NC(=O)c1ncnc(N)c1Cl)c1ncc(C(=O)Nc2cc(C(F)(F)F)c(Cl)cn2)s1 (2.5 µM)
inactive: MAPK1 = 0 | MAPK4 = 0 | MAPKAPK2 = 0 | MKNK1 = 0 | NTRK2 = 0 | NTRK3 = 0 | PAK4 = 0 | PBK 0 | PDGFRB 0 | PDK1 = 0 | PDPK1 = 0 | PIK4CA 0 | PIK4CB 0 | PLK1 = 0 | PRKAA1 = 0 | PRKCA 0 | PTK2 = 0 | PTK2B 0

Cc1nc(Nc2cnn(C3CCNCC3)c2)nc2c1N(C)C(=O)c1cc3ccccc3cc1N2C (2.5 µM)
inactive: MAPK1 = 0 | MAPK4 = 0 | MAPKAPK2 = 0 | MKNK1 = 0 | NTRK2 = 0 | NTRK3 = 0 | PAK4 = 0 | PBK 0 | PDGFRB 0 | PDK1 = 0 | PDPK1 = 0 | PIK4CA 0 | PIK4CB 0 | PLK1 = 0 | PRKAA1 = 0 | PRKCA 0 | PTK2 = 0 | PTK2B 0 | RAF1 = 0 | [1] 0

Cc1ccc2c(NS(=O)(=O)c3ccccc3Cl)cccc2c1Oc1ncccc1-c1ccnc(N[C@H]2CCCNC2)n1 (2.5 µM)
inactive: MAPK1 = 0 | MAPK4 = 0 | MAPKAPK2 = 0 | MKNK1 = 0 | NTRK2 = 0 | NTRK3 = 0 | PAK4 = 0 | PBK 0 | PDGFRB 0 | PDK1 = 0 | PDPK1 = 0 | PIK4CA 0 | PIK4CB 0 | PLK1 = 0 | PRKAA1 = 0 | PRKCA 0 | PTK2 = 0 | PTK2B 0 | RAF1 = 0 | [1] 0

Two successive compounds out of the list so far, for reference:
C[C@@H](NC(=O)c1ncnc(N)c1Cl)c1ncc(C(=O)Nc2cc(C(F)(F)F)c(Cl)cn2)s1 (2.5 µM)
inactive: MAPK1 = 0 | MAPK4 = 0 | MAPKAPK2 = 0 | MKNK1 = 0 | NTRK2 = 0 | NTRK3 = 0 | PAK4 = 0 | PBK 0 | PDGFRB 0 | PDK1 = 0 | PDPK1 = 0 | PIK4CA 0 | PIK4CB 0 | PLK1 = 0 | PRKAA1 = 0 | PRKCA 0 | PTK2 = 0 | PTK2B 0

Cc1nc(Nc2cnn(C3CCNCC3)c2)nc2c1N(C)C(=O)c1cc3ccccc3cc1N2C (2.5 µM)
inactive: MAPK1 = 0 | MAPK4 = 0 | MAPKAPK2 = 0 | MKNK1 = 0 | NTRK2 = 0 | NTRK3 = 0 | PAK4 = 0 | PBK 0 | PDGFRB 0 | PDK1 = 0 | PDPK1 = 0 | PIK4CA 0 | PIK4CB 0 | PLK1 = 0 | PRKAA1 = 0 | PRKCA 0 | PTK2 = 0 | PTK2B 0 | RAF1 = 0 | [1] 0

Later entries:

CN(C)C(=O)c1cc2cnc(Nc3ccc(N4CCN(CCCCNC(=O)COc5cccc6c5C(=O)N(C5CCC(=O)NC5=O)C6=O)CC4)cn3)nc2n1C1CCCC1 (stereo not drawn) (10 µM)
inactive: MAPK1 = 0 | MAPK4 = 0 | MAPKAPK2 = 0 | MKNK1 = 0 | NTRK2 = 0 | NTRK3 = 0 | PAK4 = 0 | PBK 0 | PDGFRB 0 | PDK1 = 0 | PDPK1 = 0 | PIK4CA 0 | PIK4CB 0 | PLK1 = 0 | PRKAA1 = 0 | PRKCA 0 | PTK2 = 0 | PTK2B 0 | RAF1 = 0 | [1] 0

NC(=O)c1cnc(N[C@@H]2CCCC[C@@H]2N)nc1Nc1cccc(-n2nccn2)c1 (2.5 µM)
inactive: MAPK1 = 0 | MAPK4 = 0 | MAPKAPK2 = 0 | MKNK1 = 0 | NTRK2 = 0 | NTRK3 = 0 | PAK4 = 0 | PBK 0 | PDGFRB 0 | PDK1 = 0 | PDPK1 = 0 | PIK4CA 0 | PIK4CB 0 | PLK1 = 0 | PRKAA1 = 0 | PRKCA 0 | PTK2 = 0 | PTK2B 0 | RAF1 = 0 | [1] 0

CS(=O)(=O)c1ccc([C@@H](CC2CCCC2)C(=O)Nc2nccs2)cc1 (10 µM)
inactive: MAPK1 = 0 | MAPK4 = 0 | MAPKAPK2 = 0 | MKNK1 = 0 | NTRK2 = 0 | NTRK3 = 0 | PAK4 = 0 | PBK 0 | PDGFRB 0 | PDK1 = 0 | PDPK1 = 0 | PIK4CA 0 | PIK4CB 0 | PLK1 = 0 | PRKAA1 = 0 | PRKCA 0 | PTK2 = 0 | PTK2B 0 | RAF1 = 0 | [1] 0

Cc1cncc2cccc(S(=O)(=O)N3CCCNC[C@@H]3C)c12 [H-1152 (dihydrochloride)] (10 µM)
inactive: MAPK1 = 0 | MAPK4 = 0 | MAPKAPK2 = 0 | MKNK1 = 0 | NTRK2 = 0 | NTRK3 = 0 | PAK4 = 0 | PBK 0 | PDGFRB 0 | PDK1 = 0 | PDPK1 = 0 | PIK4CA 0 | PIK4CB 0 | PLK1 = 0 | PRKAA1 = 0 | PRKCA 0 | PTK2 = 0 | PTK2B 0 | RAF1 = 0 | [1] 0

CO/N=C1/C(c2c(O)[nH]c3cc(Cl)c(Cl)cc23)=Nc2ccccc21 (10 µM)
inactive: MAPK1 = 0 | MAPK4 = 0 | MAPKAPK2 = 0 | MKNK1 = 0 | NTRK2 = 0 | NTRK3 = 0 | PAK4 = 0 | PBK 0 | PDGFRB 0 | PDK1 = 0 | PDPK1 = 0 | PIK4CA 0 | PIK4CB 0 | PLK1 = 0 | PRKAA1 = 0 | PRKCA 0 | PTK2 = 0 | PTK2B 0 | RAF1 = 0 | [1] 0

O=c1c(O)c(-c2ccc(O)c(O)c2)oc2cc(O)c(O)c(O)c12 [Quercetagetin] (10 µM)
inactive: MAPK1 = 0 | MAPK4 = 0 | MAPKAPK2 = 0 | MKNK1 = 0 | NTRK2 = 0 | NTRK3 = 0 | PAK4 = 0 | PBK 0 | PDGFRB 0 | PDK1 = 0 | PDPK1 = 0 | PIK4CA 0 | PIK4CB 0 | PLK1 = 0 | PRKAA1 = 0 | PRKCA 0 | PTK2 = 0 | PTK2B 0 | RAF1 = 0 | [1] 0

CN1CCN(Cc2ccc(-c3cn(C4CCC(O)CC4)c4nc(NCCC5CC5)ncc34)cc2)CC1 (stereo not drawn) (2.5 µM)
inactive: MAPK1 = 0 | MAPK4 = 0 | MAPKAPK2 = 0 | MKNK1 = 0 | NTRK2 = 0 | NTRK3 = 0 | PAK4 = 0 | PBK 0 | PDGFRB 0 | PDK1 = 0 | PDPK1 = 0 | PIK4CA 0 | PIK4CB 0 | PLK1 = 0 | PRKAA1 = 0 | PRKCA 0 | PTK2 = 0 | PTK2B 0 | RAF1 = 0 | [1] 0

CC1=C(C#N)C(c2ccc3[nH]nc(C)c3c2)C(C#N)=C(C)N1 (10 µM)
inactive: MAPK1 = 0 | MAPK4 = 0 | MAPKAPK2 = 0 | MKNK1 = 0 | NTRK2 = 0 | NTRK3 = 0 | PAK4 = 0 | PBK 0 | PDGFRB 0 | PDK1 = 0 | PDPK1 = 0 | PIK4CA 0 | PIK4CB 0 | PLK1 = 0 | PRKAA1 = 0 | PRKCA 0 | PTK2 = 0 | PTK2B 0 | RAF1 = 0 | [1] 0

CC(=O)O/N=C1/C(c2c(O)[nH]c3cc(Br)ccc23)=Nc2ccccc21 [BIO-acetoxime] (10 µM)
inactive: MAPK1 = 0 | MAPK4 = 0 | MAPKAPK2 = 0 | MKNK1 = 0 | NTRK2 = 0 | NTRK3 = 0 | PAK4 = 0 | PBK 0 | PDGFRB 0 | PDK1 = 0 | PDPK1 = 0 | PIK4CA 0 | PIK4CB 0 | PLK1 = 0 | PRKAA1 = 0 | PRKCA 0 | PTK2 = 0 | PTK2B 0 | RAF1 = 0 | [1] 0

CNCc1cc(Oc2ccc3c(ccn3C(=O)Nc3cc(C(F)(F)F)n(C)n3)c2)ncn1 [Acrizanib] (10 µM)
inactive: MAPK1 = 0 | MAPK4 = 0 | MAPKAPK2 = 0 | MKNK1 = 0 | NTRK2 = 0 | NTRK3 = 0 | PAK4 = 0 | PBK 0 | PDGFRB 0 | PDK1 = 0 | PDPK1 = 0 | PIK4CA 0 | PIK4CB 0 | PLK1 = 0 | PRKAA1 = 0 | PRKCA 0 | PTK2 = 0 | PTK2B 0 | RAF1 = 0 | [1] 0

CN(C[C@@H]1COCCO1)S(=O)(=O)Nc1ccc2ccc3ncc(-c4cnn(C)c4)cc3c(=O)c2c1 (2.5 µM)
inactive: MAPK1 = 0 | MAPK4 = 0 | MAPKAPK2 = 0 | MKNK1 = 0 | NTRK2 = 0 | NTRK3 = 0 | PAK4 = 0 | PBK 0 | PDGFRB 0 | PDK1 = 0 | PDPK1 = 0 | PIK4CA 0 | PIK4CB 0 | PLK1 = 0 | PRKAA1 = 0 | PRKCA 0 | PTK2 = 0 | PTK2B 0 | RAF1 = 0 | [1] 0

CN1CCN(Cc2ccc(-c3cnc4[nH]cc(-c5ccc6[nH]ccc6c5)c4c3)cc2)CC1 (2.5 µM)
inactive: MAPK1 = 0 | MAPK4 = 0 | MAPKAPK2 = 0 | MKNK1 = 0 | NTRK2 = 0 | NTRK3 = 0 | PAK4 = 0 | PBK 0 | PDGFRB 0 | PDK1 = 0 | PDPK1 = 0 | PIK4CA 0 | PIK4CB 0 | PLK1 = 0 | PRKAA1 = 0 | PRKCA 0 | PTK2 = 0 | PTK2B 0 | RAF1 = 0 | [1] 0

C[C@@H]1COC(Nc2ccc3ncnc(Nc4ccc(OCc5nccs5)c(Cl)c4)c3c2)=N1 [Varlitinib] (10 µM)
active: PTK2 = 1
inactive: MAPK1 = 0 | MAPK4 = 0 | MAPKAPK2 = 0 | MKNK1 = 0 | NTRK2 = 0 | NTRK3 = 0 | PAK4 = 0 | PBK 0 | PDGFRB 0 | PDK1 = 0 | PDPK1 = 0 | PIK4CA 0 | PIK4CB 0 | PLK1 = 0 | PRKAA1 = 0 | PRKCA 0 | PTK2B 0 | RAF1 = 0 | [1] 0

O=C(Nc1ccc(F)cc1F)C(NC(=S)Nc1cc(C(F)(F)F)cc(C(F)(F)F)c1)c1ccccc1 (racemic) (2.5 µM)
inactive: MAPK1 = 0 | MAPK4 = 0 | MAPKAPK2 = 0 | MKNK1 = 0 | NTRK2 = 0 | NTRK3 = 0 | PAK4 = 0 | PBK 0 | PDGFRB 0 | PDK1 = 0 | PDPK1 = 0 | PIK4CA 0 | PIK4CB 0 | PLK1 = 0 | PRKAA1 = 0 | PRKCA 0 | PTK2 = 0 | PTK2B 0 | RAF1 = 0 | [1] 0

NCCNS(=O)(=O)c1ccc(Cl)c2ccncc12 [CKI-7 (free base)] (10 µM)
inactive: MAPK1 = 0 | MAPK4 = 0 | MAPKAPK2 = 0 | MKNK1 = 0 | NTRK2 = 0 | NTRK3 = 0 | PAK4 = 0 | PBK 0 | PDGFRB 0 | PDK1 = 0 | PDPK1 = 0 | PIK4CA 0 | PIK4CB 0 | PLK1 = 0 | PRKAA1 = 0 | PRKCA 0 | PTK2 = 0 | PTK2B 0 | RAF1 = 0 | [1] 0

From the supplement of paper PMC12823440, “Inhibitors supercharge kinase turnover through native proteolytic circuits” (Nature, 2025)
